# Data: the supplement of paper PMC12542422
# Counter-ions that a name gives are not always drawn. ± gives the standard deviation of the averaged measurements. This is one part of the list. These are raw signals, not scaled to a control.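 HeLa cells imaged for ribosome-assembly readouts (ENP1 staining with or without export block, or inducible tagged ribosomal protein reporters); machine learning classified each cell's signal location against solvent (DMSO) controls. Hits exceeded the DMSO false-positive mean by five standard deviations, then were visually confirmed; three biological replicates.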
# System: HeLa RPS2-YFP reporter
# Assay: fraction of reporter-positive cells with nuclear (nucleolar or nucleolar/nucleoplasmic) RPS2-YFP (MainHitrate); higher = more cells with nucleolar/nuclear readout signal (for ENP1 -LMB: less RNAPI inhibition; for +LMB ENP1 and RP reporters: stronger nuclear/nucleolar retention, i.e. ribosome biogenesis defect)
# Conditions: concentration: 1 µM; treatment time: 6 h
row,Compound,fraction of reporter-positive cells with nuclear
1,CC[C@H](C)C(=O)O[C@H]1C[C@H](O)C=C2C=C[C@H](C)[C@H](CC[C@@H](O)C[C@@H](O)CC(=O)O)[C@H]21 [Pravastatin sodium],0.124 ± 0.089
2,"CO[C@H]1/C=C/O[C@@]2(C)Oc3c(C)c(O)c4c(O)c(c(/C=N/N5CCN(C)CC5)c(O)c4c3C2=O)NC(=O)/C(C)=C\C=C\[C@H](C)[C@H](O)[C@@H](C)[C@@H](O)[C@@H](C)[C@H](OC(C)=O)[C@@H]1C [Rifampin (Rifadin, Rimactane)]",0.115 ± 0.075
3,CC(=O)O[C@]1(C(C)=O)CC[C@H]2[C@@H]3C[C@H](C)C4=CC(=O)C=C[C@]4(C)[C@@]3(F)[C@@H](O)C[C@@]21C [Fluorometholone Acetate],0.156 ± 0.15
4,CCCCCCCCCCCCCCCCCCCCCCO [Docosanol (Abreva)],0.104 ± 0.051
5,O=c1[nH]c(=O)n(C2CCCO2)cc1F (stereo not given) [Ftorafur],0.0612 ± 0.011
6,CN(C)CCCOc1nn(Cc2ccccc2)c2ccccc12 [Benzydamine Hydrochloride],0.105 ± 0.11
7,O=C(Nc1c(Cl)cncc1Cl)c1ccc(OC(F)F)c(OCC2CC2)c1 [Roflumilast (Daxas)],0.0965 ± 0.077
8,CCc1c(Cl)c(O)c(Cl)c(O)c1C(=O)O[C@H]1[C@H](O)[C@H](OC)[C@H](OC/C2=C\C=C\C[C@H](O)/C(C)=C/[C@H](CC)[C@@H](O[C@@H]3OC(C)(C)[C@@H](OC(=O)C(C)C)[C@H](O)[C@@H]3O)/C(C)=C/C(C)=C/C[C@@H]([C@@H](C)O)OC2=O)O[C@@H]1C [Fidaxomicin],0.147 ± 0.12
9,COc1cc2nc(N3CCN(C(=O)C4CCCO4)CC3)nc(N)c2cc1OC (stereo not given) [Terazosin HCl (Hytrin)],0.141 ± 0.078
10,C=CCc1cc(OC)c(O)c(C(=O)NCCO)c1 [Alibendol],0.107 ± 0.063
11,CC(=O)N1CCN(c2ccc(OCC3COC(Cn4ccnc4)(c4ccc(Cl)cc4Cl)O3)cc2)CC1 (stereo not given) [Ketoconazole],0.103 ± 0.076
12,N#C[C@@H]1CCCN1C(=O)CNC12CC3CC(CC(O)(C3)C1)C2 [Vildagliptin (LAF-237)],0.135 ± 0.099
13,O=C(O)C1(C(=O)O)CCC1.[NH2-].[NH2-].[Pt+2] [Carboplatin],0.119 ± 0.069
14,Cc1cn([C@H]2C[C@H](N=[N+]=[N-])[C@@H](CO)O2)c(=O)[nH]c1=O [Zidovudine (Retrovir)],0.111 ± 0.11
15,O=P(O)(O)C(O)(Cc1cccnc1)P(=O)(O)O [Risedronate sodium],0.104 ± 0.049
16,CC(C)Cc1ccc(C(C)C(=O)O)cc1 (stereo not given) [Ibuprofen (Advil)],0.108 ± 0.059
17,CN(C)CCN1C(=O)c2ccccc2N(C)c2ccccc21 [Dibenzepine HCl],0.137 ± 0.14
18,CN[C@@H]1[C@H](O)[C@H](NC)[C@H]2O[C@@]3(O)C(=O)C[C@@H](C)O[C@H]3O[C@@H]2[C@H]1O [Spectinomycin  hydrochloride],0.108 ± 0.093
19,CCCN(CCC)CCc1cccc2c1CC(=O)N2 [Ropinirole HCl],0.134 ± 0.11
20,COc1ccc(-c2ccc3cc(C(=O)O)ccc3c2)cc1C12CC3CC(CC(C3)C1)C2 [Adapalene],0.119 ± 0.088
21,Nc1ccn([C@H]2CC[C@@H](CO)O2)c(=O)n1 [Zalcitabine],0.126 ± 0.091
22,O=C1CC[C@@H](C(=O)N2CSC[C@H]2C(=O)O)N1 [Pidotimod],0.0978 ± 0.1
23,COC(=O)[C@H](Cc1ccccc1)NC(=O)[C@@H](N)CC(=O)O [Aspartame],0.0903 ± 0.049
24,CNCCc1ccccn1 [Betahistine 2HCl],0.133 ± 0.11
25,Cc1onc(-c2ccccc2Cl)c1C(=O)N[C@@H]1C(=O)N2[C@@H]1SC(C)(C)[C@@H]2C(=O)O [Cloxacillin sodium (Cloxacap)],0.0964 ± 0.042
26,O=C(Nc1ccc([N+](=O)[O-])cc1Cl)c1cc(Cl)ccc1O [Niclosamide (Niclocide)],0.323 ± 0.29
27,CO[C@@H]1[C@@H](OC(N)=O)[C@@H](O)[C@H](Oc2ccc3c(O)c(NC(=O)c4ccc(O)c(CC=C(C)C)c4)c(=O)oc3c2C)OC1(C)C [Novobiocin sodium (Albamycin)],0.103 ± 0.091
28,O=C(O)/C=C/c1ccc(Cn2ccnc2)cc1 [Ozagrel],0.0904 ± 0.063
29,CC(C)CN(C[C@@H](O)[C@H](Cc1ccccc1)NC(=O)O[C@H]1CCOC1)S(=O)(=O)c1ccc(N)cc1 [Amprenavir (Agenerase)],0.114 ± 0.071
30,CNC(=O)c1cc(Oc2ccc(NC(=O)Nc3ccc(Cl)c(C(F)(F)F)c3)cc2)ccn1 [Sorafenib (Nexavar)],0.0687 ± 0.064

# An excerpt of these results, with bars between the fields.
row | Compound | fraction of reporter-positive cells with nuclear
7 | O=C(Nc1c(Cl)cncc1Cl)c1ccc(OC(F)F)c(OCC2CC2)c1 [Roflumilast (Daxas)] | 0.0965 ± 0.077
8 | CCc1c(Cl)c(O)c(Cl)c(O)c1C(=O)O[C@H]1[C@H](O)[C@H](OC)[C@H](OC/C2=C\C=C\C[C@H](O)/C(C)=C/[C@H](CC)[C@@H](O[C@@H]3OC(C)(C)[C@@H](OC(=O)C(C)C)[C@H](O)[C@@H]3O)/C(C)=C/C(C)=C/C[C@@H]([C@@H](C)O)OC2=O)O[C@@H]1C [Fidaxomicin] | 0.147 ± 0.12
